Paper PMC8319359
Construct, isoform or probe ends are uncertain for at least one entry. For some of these results: Weaker means in comparison with the reference protein, sequence or condition of that experiment. For some of these results: At least one verdict was read from the data and is not stated in words by the source.

Legend:
Assay in all cases: EMSA
[1] = test system: Alx1-FL (Lytechinus variegatus); details: 75 mM NaCl, 15 mM Tris pH 7.6, 7.5% glycerol, 2 mM MgCl2, 1.5 mM EDTA, 0.1% NP-40, 40 mM DTT, 50 ug BSA, ice then RT, recombinant protein, protein details: Flag (N-terminal, intein removed)
[2] = test system: Alx1-HD (Lytechinus variegatus); details: 75 mM NaCl, 15 mM Tris pH 7.6, 7.5% glycerol, 2 mM MgCl2, 1.5 mM EDTA, 0.1% NP-40, 40 mM DTT, 50 ug BSA, 1 ug poly(dI-dC) per 20 ul, ice then RT, recombinant protein, protein details: His
[3] = test system: Alx1-ΔD2 (Lytechinus variegatus); details: 75 mM NaCl, 15 mM Tris pH 7.6, 7.5% glycerol, 2 mM MgCl2, 1.5 mM EDTA, 0.1% NP-40, 40 mM DTT, 50 ug BSA, ice then RT, recombinant protein, protein details: His
[4] = test system: Alx4-FL (Lytechinus variegatus); details: 75 mM NaCl, 15 mM Tris pH 7.6, 7.5% glycerol, 2 mM MgCl2, 1.5 mM EDTA, 0.1% NP-40, 40 mM DTT, 50 ug BSA, 1 ug poly(dI-dC) per 20 ul, ice then RT, recombinant protein, protein details: Flag (N-terminal, intein removed)
[5] = dimer, 1 ug poly(dI-dC) per 20 ul, label: 5' biotin
[6] = primarily monomer, 1 ug poly(dI-dC) per 20 ul, label: 5' biotin
[7] = predominantly dimer, 1 ug poly(dI-dC) per 20 ul, label: 5' biotin
[8] = monomer and prominent dimer, 1 ug poly(dI-dC) per …, label: 5' biotin
[9] = monomer, some dimer, 1 ug poly(dI-dC) per 20 ul, label: 5' biotin

“ACCAACCACAACGTCGGGGCGTTAATAGATTTAAACTTTTTCGTCCGCCTG (double strand) [shorter palindromic (55bp)]”: binds [1, 5].
“ATATCCGCGCGCATAATGTGACGACGTTAC (double strand) [Site C]”: binds [1, 6]; binds more weakly ([2]; very weak, if at all, label: 5' biotin); binds [3, 6].
“ATCCAGGTATGTATCGTGTTAATCAGCCTGTCTCTTCATCATCCCGTTAATAAGGACTTGATCGCAAATG (double strand) [Site A + Site B (70bp)]”: binds ([1]; dimeric complex, noncooperative, 1 ug poly(dI-dC) per 20 ul, label: 5' biotin or Cy5); binds ([4]; label: 5' biotin or Cy5); binds ([3]; 1 ug poly(dI-dC) per 20 ul, label: 5' biotin or Cy5).
“CAAGCTGGTTTTGATTCGATCACGACTCTCT (double strand) [Site D]”: binds [1, 7]; binds ([2]; monomer and dimer, label: 5' biotin); binds [3, 7].
“CTTCATCATCCCGTTAATAAGGACTTGATCG (double strand) [Site B]”: binds [1, 8]; binds ([2]; monomer only, label: 5' biotin); binds [3, 8].
“GGTATGTATCGTGTTAATCAGCCTGTCTCTT (double strand) [Site A]”: binds [1, 9]; binds ([2]; monomer only, label: 5' biotin); binds [3, 9].
“GTCGGGGCGTTAATAGATTTAAACTTTTTC (double strand) [Sp-EMI/TM palindromic]”: binds ([1]; predominantly dimer, titration 12-388 nM, 1 nM Cy5 probe in Fig 3, 1 ug poly(dI-dC) per 20 ul, label: 5' biotin (Fig 2) or Cy5 (Fig 3, 4C)); binds ([2]; monomer and dimer, label: 5' biotin (Fig 2) or Cy5 (Fig 3, 4C)); binds ([4]; dimer:monomer ratio markedly lower than Alx1-FL, titration 9-296 nM, 1 nM Cy5 probe, label: 5' biotin (Fig 2) or Cy5 (Fig 3, 4C)). “GTCGGGGCGTTAATAGATTTAAACTTTTTC (double strand) [Sp-EMI/TM palindromic]”: binds ([3]; dimer:monomer ratio lower than Alx1-FL, titration 12-388 nM, 1 ug poly(dI-dC) per 20 ul, label: 5' biotin (Fig 2) or Cy5 (Fig 3, 4C)).
“GTTGATAAACCAACCACAACGTCGGGGCGTTAATAGATTTAAACTTTTTCGTCCGCCTGTAAAGTGATAA (double strand) [longer palindromic (70bp)]”: binds [1, 5]; binds ([4]; dimer, label: 5' biotin); binds [3, 5].
“TATGTATCGTGTTAATCAGCCTGTCTCTTCATCATCCCGCTCTTCATCATCCCGTTAATAAGGACTTGAT (double strand) [Site A +++ Site B (70bp)]”: binds ([1]; binding little or not changed versus Site A + Site B, 1 ug poly(dI-dC) per 20 ul, label: 5' biotin or Cy5).
“TATGTATCGTGTTAATCAGCCTGTCTCTTCATCATCCCGTTAATAAGGACT (double strand) [shorter Site A + Site B (55bp)]”: binds ([1]; complexes slower than dimer on palindrome, 1 ug poly(dI-dC) per 20 ul, label: 5' biotin).
